Source: patent publication US11453711B2, “Fusion proteins of GLP-1 and GDF15 and conjugates thereof” (BEIJING QL BIOPHARMACEUTICAL CO., LTD., priority 2019, dated 2022)

Test: Acylation specificity of 4 lysines (K62, K69, K91, K107) in native GDF15, API digest LC/MS

Native GDF15: mature domain of native GDF15, SEQ ID NO: 248; control
Acylation percentage (lysine position 62K on GDF15): 0% | Acylation percentage (lysine position 69K on GDF15): ~14% | Acylation percentage (lysine position 91K on GDF15): 100% | Acylation percentage (lysine position 107K on GDF15): ~42%
